Test results: the supplement of paper PMC7238544
Structures can show the parent of a compound that is named as a salt. ± gives the standard deviation of the averaged measurements. The list shows a part of the results. The data scatter; read single values as rough.

How the values were obtained:
[1] = tested on: hAMSC donor 1; experiment: Hoechst total cell count ratio vs vehicle control; higher = more cells (less toxicity)
[2] = tested on: hAMSC donor 2; experiment: as above
[3] = tested on: hAMSC donor 1; experiment: transgenic luciferase activity (RLU/mg protein) fold change vs vehicle control (ratio); higher = more transgene expression
[4] = tested on: hAMSC donor 2; experiment: as above
[5] = tested on: hAMSC donor 1; experiment: transfection efficiency (EGFP+ cells / Hoechst count) fold change vs vehicle control (ratio); hAMSC are human adipose-derived mesenchymal stem cells given an EGFP-luciferase plasmid by lipofection; higher = enhanced transfection
[6] = tested on: hAMSC donor 2; experiment: as above
[7] = priming compound concentration 0.2 µM
[8] = priming compound concentration 1.7 µM
[9] = priming compound concentration 13 µM

Structure (SMILES) | Hoechst total cell count ratio [1, 7] | Hoechst total cell count ratio [1, 8] | Hoechst total cell count ratio [1, 9] | Hoechst total cell count ratio [2, 7] | Hoechst total cell count ratio [2, 8] | Hoechst total cell count ratio [2, 9] | transgenic luciferase activity [3, 7] | transgenic luciferase activity [4, 8] | transfection efficiency [5, 7] | transfection efficiency [5, 8] | transfection efficiency [5, 9] | transfection efficiency [6, 7] | transfection efficiency [6, 8] | transfection efficiency [6, 9] | transgenic luciferase activity [4, 7] | transgenic luciferase activity [3, 8] | transgenic luciferase activity [4, 9]
CC(N/C(=N\C#N)Nc1ccncc1)C(C)(C)C (stereo unspecified) [Pinacidil monohydrate] | 1.16 ± 0.088 | 1.09 ± 0.099 | 1.37 ± 0.13 | 1.27 ± 0.049 | 1.45 ± 0.047 | 1.09 ± 0.23 | 0.813 ± 0.79 | 0.865 ± 0.27 | 0.937 ± 0.1 | 1.33 ± 0.71 | 0.652 ± 0.22 | 1.07 ± 0.058 | 0.879 ± 0.062 | 0.834 ± 0.078 |  |  | 
COc1ccc(CC2c3cc(OC)c(OC)cc3CC[N+]2(C)CCC(=O)OCCCCCOC(=O)CC[N+]2(C)CCc3cc(OC)c(OC)cc3C2Cc2ccc(OC)c(OC)c2)cc1OC (stereo unspecified) [Atracurium besylate] | 1.11 ± 0.14 | 1.24 ± 0.13 | 0.881 ± 0.17 | 1.02 ± 0.38 | 0.899 ± 0.094 | 0.589 ± 0.081 | 0.475 ± 0.2 | 0.391 ± 0.077 | 0.878 ± 0.24 | 0.505 ± 0.15 | 1.49 ± 0.56 | 1.33 ± 0.2 | 1.07 ± 0.079 | 1.72 ± 0.18 |  |  | 
NCCc1ccc(O)c(O)c1 [Dopamine hydrochloride] | 1.08 ± 0.035 | 1.13 ± 0.085 | 1.19 ± 0.12 | 0.943 ± 0.25 | 0.944 ± 0.11 | 1.09 ± 0.061 | 1.77 ± 0.53 |  | 0.43 ± 0.14 | 1.5 ± 1.2 | 1.04 ± 0.24 | 1.35 ± 0.3 | 1.02 ± 0.039 | 0.809 ± 0.11 | 0.774 ± 0.43 |  | 
CC(C)(S)C(N)C(=O)O (racemic) [DL-Penicillamine] | 1.2 ± 0.11 | 1.27 ± 0.17 | 1.3 ± 0.12 | 1.01 ± 0.1 | 1.24 ± 0.023 | 1.36 ± 0.092 | 2.43 ± 1.1 |  | 0.602 ± 0.14 | 1.17 ± 0.34 | 1.21 ± 0.3 | 1.19 ± 0.13 | 0.83 ± 0.083 | 0.793 ± 0.03 | 0.872 ± 0.33 |  | 
CN(C)CCc1c[nH]c2ccc(Cn3cncn3)cc12 [Rizatriptan benzoate] | 1.12 ± 0.054 | 0.829 ± 0.15 | 1.04 ± 0.069 | 1.11 ± 0.13 | 1.25 ± 0.085 | 1.3 ± 0.11 | 0.756 ± 0.38 |  | 1.28 ± 0.27 | 1.27 ± 0.32 | 1.63 ± 0.25 | 1.28 ± 0.36 | 0.952 ± 0.084 | 1.02 ± 0.046 | 1.19 ± 0.083 |  | 
CN1CC(=O)N2[C@H](c3ccc4c(c3)OCO4)c3[nH]c4ccccc4c3C[C@@H]2C1=O [Tadalafil] | 1.33 ± 0.12 | 1.31 ± 0.17 | 1.53 ± 0.14 | 1.02 ± 0.079 | 1.28 ± 0.11 | 1.34 ± 0.091 | 0.582 ± 0.13 |  | 0.819 ± 0.13 | 1.17 ± 0.14 | 1.36 ± 0.31 | 1.42 ± 0.16 | 0.768 ± 0.047 | 1.04 ± 0.22 | 0.834 ± 0.28 |  | 
CNCCCC12CCC(c3ccccc31)c1ccccc12 [Maprotiline hydrochloride] | 1.1 ± 0.077 | 1.11 ± 0.038 | 1.15 ± 0.032 | 1.34 ± 0.026 | 0.989 ± 0.15 | 1.05 ± 0.13 |  |  | 1.46 ± 0.31 | 1.57 ± 0.39 | 1.21 ± 0.29 | 0.996 ± 0.13 | 1.13 ± 0.15 | 0.931 ± 0.065 |  | 0.921 ± 0.17 | 0.962 ± 0.15
CN(C)[C@@H]1C(O)=C(C(N)=O)C(=O)[C@@]2(O)C(O)=C3C(=O)c4c(O)cccc4[C@@](C)(O)[C@H]3C[C@@H]12 [Tetracycline] | 1.06 ± 0.076 | 1.12 ± 0.098 | 1.02 ± 0.09 | 0.976 ± 0.32 | 1.07 ± 0.09 | 0.73 ± 0.09 | 0.65 ± 0.14 | 0.623 ± 0.11 | 1.03 ± 0.17 | 1.05 ± 0.062 | 1.18 ± 0.12 | 1.49 ± 0.12 | 0.88 ± 0.084 | 0.818 ± 0.021 |  |  | 
Nc1ncn([C@@H]2O[C@H](CO)[C@@H](O)[C@H]2O)c(=O)n1 [5-Azacytidine] | 1.09 ± 0.046 | 1.06 ± 0.07 | 1.13 ± 0.055 | 1.22 ± 0.18 | 0.985 ± 0.023 | 1.03 ± 0.12 | 1.69 ± 0.95 |  | 0.539 ± 0.14 | 1.08 ± 0.073 | 1.28 ± 0.12 | 1.11 ± 0.062 | 0.836 ± 0.054 | 1.21 ± 0.1 | 1.15 ± 0.15 |  | 
COc1cc(OC)c(C(=O)CCCN2CCCC2)c(OC)c1 [Buflomedil hydrochloride] | 1.04 ± 0.14 | 1.03 ± 0.13 | 1.18 ± 0.061 | 1.19 ± 0.19 | 1.14 ± 0.06 | 0.859 ± 0.029 |  |  | 1.26 ± 0.22 | 1.45 ± 0.54 | 1.1 ± 0.15 | 1.5 ± 0.26 | 1.14 ± 0.069 | 1.32 ± 0.2 |  | 1.13 ± 0.34 | 1.03 ± 0.22
CC1=C(C/C=C(\C)CCC[C@H](C)CCC[C@H](C)CCCC(C)C)C(=O)c2ccccc2C1=O [Phylloquinone] | 1.24 ± 0.12 | 1.45 ± 0.11 | 1.31 ± 0.089 | 1.26 ± 0.27 | 1.26 ± 0.05 | 1.37 ± 0.29 | 2.01 ± 1.2 |  | 0.684 ± 0.12 | 0.956 ± 0.35 | 1.12 ± 0.14 | 1.21 ± 0.53 | 0.781 ± 0.09 | 0.813 ± 0.041 | 1.17 ± 0.2 |  | 
CC1(C)S[C@@H]2[C@H](NC(=O)[C@H](N)c3ccccc3)C(=O)N2[C@H]1C(=O)O [Ampicillin sodium] | 1.14 ± 0.028 | 1.22 ± 0.25 | 1.31 ± 0.11 | 0.744 ± 0.02 | 1.08 ± 0.029 | 1.27 ± 0.17 | 1.52 ± 0.97 |  | 0.669 ± 0.2 | 1.19 ± 0.69 | 1.66 ± 0.4 | 1.49 ± 0.23 | 0.865 ± 0.064 | 0.94 ± 0.09 | 0.736 ± 0.25 |  | 
O=c1[nH]cc(F)c(=O)[nH]1 [5-Fluorouracil] | 1.16 ± 0.15 | 1.35 ± 0.075 | 1.42 ± 0.069 | 0.899 ± 0.11 | 1.12 ± 0.21 | 0.805 ± 0.09 | 0.455 ± 1.9 |  | 0.605 ± 0.1 | 0.674 ± 0.21 | 1.25 ± 0.64 | 1.29 ± 0.34 | 0.933 ± 0.079 | 1.62 ± 0.14 | 0.778 ± 0.1 |  | 
CN1[C@@H](CC(=O)c2ccccc2)CCC[C@H]1C[C@H](O)c1ccccc1 [Lobeline hydrochloride] | 1.18 ± 0.098 | 1.24 ± 0.25 | 1.41 ± 0.13 | 0.913 ± 0.32 | 1.59 ± 0.2 | 1.1 ± 0.43 | 0.782 ± 0.28 | 0.738 ± 0.27 | 1.07 ± 0.23 | 0.869 ± 0.14 | 0.659 ± 0.05 | 1.33 ± 0.41 | 1.28 ± 0.18 | 0.938 ± 0.31 |  |  | 

Only Hoechst total cell count ratio [2, 9] (2 entries from above):
Structure (SMILES)	Hoechst total cell count ratio [2, 9]
Nc1ncn([C@@H]2O[C@H](CO)[C@@H](O)[C@H]2O)c(=O)n1 [5-Azacytidine]	1.03 ± 0.12
COc1cc(OC)c(C(=O)CCCN2CCCC2)c(OC)c1 [Buflomedil hydrochloride]	0.859 ± 0.029
